## Screening data, single-dose tests

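Whole-parasite assay of Trypanosoma brucei over 72 hours; the read-out is not stated. Compounds at 30 µM. The record gives no direction; compounds that gave an IC50 in retests scored well above the rest, so higher reads as stronger inhibition. Values scatter widely below zero; nearly all retest evidence comes from the higher of the two concentrations used. About 64,000 compounds were tested under these conditions; 1.5% (about 940) showed 50% or more at least once.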

Results are given as percent effect.
The controls that fix the scale are not given in the record; negative values are as filed.
Compounds were drawn at random from those tested, without regard to their results.

SMILES	percent effect
[H][C@@]12CCN(Cc3cc(C)on3)C[C@@]1([H])O[C@H](C)C2	-32.11
[H][C@@]12CC(=O)N(Cc3csc(C)n3)[C@@]1([H])CCN2S(=O)(=O)C1CC1	-35.16
NC(=O)NC1CCN(Cc2ccc3c(c2)CCC3)CC1	-66.75
Cc1cccc(CC(=O)NS(=O)(=O)c2ccc(F)c(F)c2)c1	-24.17
Cc1cc(=O)n(C)cc1NC(=O)Cc1ccc(C(F)(F)F)cc1	-13.81
O=C(O)CN1CCC(c2ccccc2)C1 (stereo not given)	0.289
C=C(C)COc1ccccc1CNCCc1c[nH]cn1	26.02
CC(c1cn2ncsc2n1)N1Cc2ncccc2C1=O (stereo not given)	6.941
Cc1ccccc1C1(CNC(=O)c2ccc(S(C)(=O)=O)cc2)CC1	-55.1
Cc1ccnc2c1NC(=O)CN2C(=O)CCc1cccs1	-2.704
CN(C)C(=O)c1cccc(NC(=O)CN2CCCCC2C2OCCO2)c1 (stereo not given)	-22.64
Cc1cnc(C2(C)CCN(Cc3cscn3)CC2)s1	-39.21
O=C(CCn1cccn1)N1CCC(C2CCN(c3ncccn3)CC2)C1 (stereo not given)	-10.65
Cn1cnnc1C1CCCN(C(=O)c2cnc3ccccc3n2)C1 (stereo not given)	-16.07
COCC(=O)N1CCC(c2csc(NC(C)=O)n2)CC1	-9.211
COCCN1CCC(NCc2c(C(C)C)nn(C)c2N(C)C)CC1	-43.52
CN(C)C(=O)N1CC[C@@H](O)[C@@H]1Cc1ccccc1	-3.358
CCCc1nn(C2CCCN(C(C)C)C2=O)c(=O)o1 (stereo not given)	1.663
CCCN(Cc1nc(-c2ccc(F)c(OC)c2)oc1C)CC1CCCO1 (stereo not given)	-56.26
Cc1cnc(CC2COCCN(C(=O)c3cncnc3)C2)cn1 (stereo not given)	-11.61
[H][C@@]12CCCCCN(C(C)=O)[C@@]1([H])[C@H](c1cccc(F)c1)CN2C(C)=O	5.551
CCOC(C)c1nccn1Cc1c(C)noc1C (stereo not given)	-6.441
Cc1ocnc1C(=O)N1CCCC1c1ccc(C(=O)N2CCSCC2)s1 (stereo not given)	-15.21
O=C(O)C(F)(F)F.[H][C@@]12COC[C@H](NS(C)(=O)=O)[C@]1([H])CN(Cc1ccc(C)o1)C2	-34.08
CCOCC1CN(Cc2cccnc2OC)Cc2cnn(C)c21.O=C(O)C(F)(F)F.O=C(O)C(F)(F)F.O=C(O)C(F)(F)F (stereo not given)	-23.64
CS(=O)(=O)c1cn[nH]c1C1CCCN(C(=O)CN2CCOCC2)C1 (stereo not given)	-5.169
Cc1cc(C)n(-c2cncc(NCCNS(C)(=O)=O)n2)n1	-6.599
COCCN(C(=O)c1ccn(-c2ccc(OC)cc2)n1)C(C)C(N)=O (stereo not given)	-14.88
O=C(C1CCOCC1)N1CCC(OCc2cccnc2)CC1	-8.89
CCn1cc(CN2CCCN(C(=O)CCc3nccs3)CC2)cn1	8.056
CNC(=O)COc1nc(C(C)(C)C)no1	-28.27
COCC(C)(C#N)NC(=O)COc1ccccc1Br (stereo not given)	-12.6
CCOC1Sc2nnc(C)n2N=C1c1ccc(Cl)cc1 (stereo not given)	-23.03
O=c1cnc2ccccc2n1CCCn1ccnc1	-6.107
O=C1C(N2CCOCC2)CCCN1Cc1cccc(C(F)(F)F)c1 (stereo not given)	2.091
Cc1cccc(CN2CC3C[C@]3(NC(=O)c3ccco3)C2)n1 (stereo not given in full)	-66.36
O=C(NCc1cnn2cccnc12)c1cccc(CC2CCNCC2)c1	-76.52
Cc1nc(CN(C)C(=O)Nc2cccc(COC(C)C)c2C)no1	-17.77
O=C(c1cncc(N2CCC3(CCNCC3)CC2)n1)N1CCCC1	6.18
Cc1occc1-c1nc(NC2CCCC2)ncc1-c1ccccn1	66.93
O=C(O)C(F)(F)F.O=C1COC2(CCN(c3cccc(F)c3)CC2)CN1Cc1ccccn1	-37.79
CCn1ccnc1CN(C)C1CCCN(Cc2ccccc2F)C1 (stereo not given)	-31.91
CC(O)CN(Cc1cccc(C(N)=O)c1)c1ccccc1 (stereo not given)	8.1
[H][C@]12CN(Cc3cccnc3OC)CC[C@@]1(O)CCN(C(=O)C1CCC1)C2	-4.64
C=C(C)CNC(C)c1ccc(S(C)(=O)=O)c(F)c1 (stereo not given)	1.797
COCCN(Cc1cnn(C)c1)CC1CCN(C(C)C)CC1	4.172
COCC1CCN(Cc2cc(O)c3c(C)ccc(C)c3n2)CC1	-24.55
Cn1ccnc1C1CCN(CCC2CCOC2)CC1 (stereo not given)	-5.971
CCN(C(=O)C1CC1)C(c1cccnc1)c1ccc2c(c1)CCO2 (stereo not given)	-58.07
Cc1nc(CN2CCc3ncnc(-c4ccccc4)c3CC2)cs1.O=C(O)C(F)(F)F	-9.777
CSCCC(=O)NS(=O)(=O)c1ccc2c(c1)OCCO2	5.219
CCn1cc(NC(=O)C2CCN(CC(=O)N3CCOCC3)CC2)cn1	-22.21
Cc1nc(C(C)C)sc1C(=O)N1CCN(C2CCSCC2)CC1	-13.22
CCc1ccc(O)c(C(=O)N2CCN(CC(=O)N(CC)CC)CC2)c1	2.537
COC(=O)c1sc(C(F)(F)F)cc1OC	-16.44
Cc1nc(CN2CCC3(C2)CN(Cc2ccco2)C3)cs1	-96.12
CN(C)CCOCC1CN(C(=O)c2ccccn2)Cc2ccnn2C1 (stereo not given)	-11.47
Cc1nccc(NCc2cncc3c2CCN(CC2CC2)C3)n1.Cl.Cl	-82.02
N#Cc1cccc(N2CC3(CCN(C(=O)C4CC=CC4)C3)CC2=O)c1 (stereo not given)	43.05
c1ccc(-c2noc(CNC3CCc4ncnn4C3)n2)nc1 (stereo not given)	0.8451
COCCNC(=O)c1cc(C(C)C)nc(N2CCCCC2)n1	-4.582
O=C(C1CC(=O)N(c2ccccc2)C1)N1CCC2(CC1)OCCO2 (stereo not given)	21.03
CCCc1noc(C(C)N2CCN(c3ccc(C#N)cn3)CC2)n1 (stereo not given)	6.979
CCNC(=O)[C@@H]1C[C@H](NC(=O)c2cc(=O)[nH]c3ccc(C)cc23)CN1C	-26.48
CC(C)c1cc(N2CCC(N(C)C)C2)n2nccc2n1 (stereo not given)	4.814
CC(=O)N1CCN(C(=O)CCCc2nnc(-c3ccccc3)o2)CC1	-2.367
[H][C@]12CN(Cc3ccc(OC)cc3)C(=O)[C@@]1([H])CN(S(=O)(=O)C1CC1)C2	-17.29
[H][C@@]12C[C@H](C)O[C@@]1([H])CCN(C(=O)c1occc1C)C2	-27.18
CCCc1cc(C(=O)Nc2nc(SC)ns2)[nH]n1	1.26
Cc1ccccc1SC1CCN(C(=O)[C@@H]2C[C@@H](N)CN2)CC1	19.74
FC(F)CN1CCC(NCc2ccc(-n3cccn3)nc2)CC1	-40.11
Oc1nc(N2CCCC2)nc2c1CCN(Cc1cccnc1)CC2	6.381
CC(C)c1nc(CN(C)C2CCN(CC(F)(F)F)C2)no1 (stereo not given)	-65.15
COc1ccc(NC2(C(=O)N3CCCn4cncc4C3)CCCC2)cc1	9.583
COC(=O)c1cc(OCC2CCC2)cc(C(=O)N[C@H]2CCCC[C@@H]2O)c1	-22.58
O=C(c1ccccn1)N1CCCC(c2cc(C(F)F)n3ncnc3n2)C1 (stereo not given)	-6.514
CCCc1cc(NC2CCc3nc(CC)nn3C2)n2ncnc2n1 (stereo not given)	-33.56
Cc1noc(C)c1CN1CCN(Cc2nc(C3CC3)no2)CC1	-41.81
CCOCC(=O)NCC(C)(O)c1cc(C)oc1C (stereo not given)	-21.54
O=C(O)C(F)(F)F.O=C(O)C(F)(F)F.[H][C@@]12CCN(Cc3ccncc3)C[C@@]1([H])O[C@@H](C(=O)NC)C2	-6.745
O=C(O)C1CN(c2cncc(Cc3ccccc3F)n2)C1	-23.43
O=C(NCCNS(=O)(=O)c1ccc(C(F)(F)F)cc1)c1ccoc1	-15.37
COC(=O)C1CCN(c2cncc(-n3nc(C)cc3C)n2)CC1	-45.22
COCc1nc(C(=O)N2CCCC2c2noc(C(C)C)n2)cs1 (stereo not given)	8.804
CCCc1nnsc1C(=O)N1CCN(CC(O)C2CC2)CC1.Cl (stereo not given)	-37.14
Cc1cc(C(=O)N2CCN(CC(O)Cn3cccn3)CC2)c(C)o1 (stereo not given)	-15.4
CNc1nc(C(=O)N2CCn3nc(C(=O)OC)cc3C2)cs1	-18.18
CCN1CCN(c2ncc3c(n2)CN(c2cnn(CC)c2)C3=O)CC1	-16.78
CCn1nc2c(cc1=O)CN(CC(=O)N(C)c1nccs1)CC2	-64.81
Cc1cc2ccccc2n1CCC(=O)N1CCN(C)CC1C(N)=O (stereo not given)	-1.811
Fc1ccccc1C1NCCc2cc3c(cc21)OCCO3 (stereo not given)	18.61

For reference, 9 entries once more:

- CCCc1noc(C(C)N2CCN(c3ccc(C#N)cn3)CC2)n1 (stereo not given) : 6.979%
- Cc1ccccc1SC1CCN(C(=O)[C@@H]2C[C@@H](N)CN2)CC1 : 19.74%
- CC(=O)N1CCN(C(=O)CCCc2nnc(-c3ccccc3)o2)CC1 : -2.367%
- Cc1cc(=O)n(C)cc1NC(=O)Cc1ccc(C(F)(F)F)cc1 : -13.81%
- Cc1nc(CN2CCC3(C2)CN(Cc2ccco2)C3)cs1 : -96.12%
- O=C(c1ccccn1)N1CCCC(c2cc(C(F)F)n3ncnc3n2)C1 (stereo not given) : -6.514%
- COC(=O)C1CCN(c2cncc(-n3nc(C)cc3C)n2)CC1 : -45.22%
- CN(C)C(=O)c1cccc(NC(=O)CN2CCCCC2C2OCCO2)c1 (stereo not given) : -22.64%
- CCn1cc(CN2CCCN(C(=O)CCc3nccs3)CC2)cn1 : 8.056%

Measurements from “University of Dundee, Small-Polar-MMV Screening Library” (2021), ChEMBL document CHEMBL3988442.